This is one part of the list.
Legend:
Test in all cases: log2 fold change, soluble protein after heating vs DMSO (PISA); higher = thermal stabilisation; K562 cells, 10 uM, 30 min; active = over 0.2 and 3.5 SD of the protein, either way, in both replicates (recomputed)
[1] = compound: COC1=CC=C(C=C1)CN2C=CC3=C2C=C(C=C3)C(=O)NO
Summary of the method: (§1)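 For each measurement, 10 μM compound was applied for 30 min to K562 cells at 2×10^6 cells/mL. Aliquots were heated for 3 min across 48°C-58°C, pooled, and extracted in PBS with 0.5% NP-40 at 4°C; the supernatant after 21,000xg for 90 min was soluble protein. This was quantified by TMTpro 16plex LC-MS/MS with channel sums equalised, and thermal stability was reported relative to control samples from duplicates, on a log2 fold-change scale.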

The chains behind the UniProt entries cited, without tags or fusion partners. Where a name states a change or a piece, a line headed by the entry shows the natural chain unless it says otherwise.
UniProt Q13451: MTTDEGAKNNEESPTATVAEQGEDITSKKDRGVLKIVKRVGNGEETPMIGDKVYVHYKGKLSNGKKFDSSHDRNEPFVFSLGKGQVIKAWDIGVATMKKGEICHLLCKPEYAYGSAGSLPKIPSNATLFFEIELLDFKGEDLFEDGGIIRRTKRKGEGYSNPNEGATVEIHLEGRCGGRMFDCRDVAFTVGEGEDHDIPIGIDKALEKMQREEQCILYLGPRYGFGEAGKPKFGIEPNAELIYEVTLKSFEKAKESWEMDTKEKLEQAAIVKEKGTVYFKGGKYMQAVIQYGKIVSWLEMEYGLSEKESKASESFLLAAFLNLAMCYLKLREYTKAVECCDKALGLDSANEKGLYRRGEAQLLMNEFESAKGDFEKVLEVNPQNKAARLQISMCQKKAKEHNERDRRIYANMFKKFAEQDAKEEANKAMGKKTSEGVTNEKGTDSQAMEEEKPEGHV
UniProt Q14192: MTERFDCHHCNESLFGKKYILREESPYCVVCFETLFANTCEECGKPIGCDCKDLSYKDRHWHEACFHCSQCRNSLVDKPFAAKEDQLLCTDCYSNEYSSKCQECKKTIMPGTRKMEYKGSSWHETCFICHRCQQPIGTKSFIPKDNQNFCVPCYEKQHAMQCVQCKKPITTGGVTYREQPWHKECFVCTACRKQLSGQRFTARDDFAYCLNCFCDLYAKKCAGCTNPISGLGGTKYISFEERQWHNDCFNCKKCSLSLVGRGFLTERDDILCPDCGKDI
UniProt Q96ND0: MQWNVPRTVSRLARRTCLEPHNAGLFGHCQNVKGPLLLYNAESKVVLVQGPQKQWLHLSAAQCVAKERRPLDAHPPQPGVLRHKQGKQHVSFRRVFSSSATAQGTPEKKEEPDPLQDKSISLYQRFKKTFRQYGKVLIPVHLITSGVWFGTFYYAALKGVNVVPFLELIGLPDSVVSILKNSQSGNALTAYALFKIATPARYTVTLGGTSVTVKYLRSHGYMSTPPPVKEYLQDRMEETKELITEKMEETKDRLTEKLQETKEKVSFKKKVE
UniProt Q9HA64: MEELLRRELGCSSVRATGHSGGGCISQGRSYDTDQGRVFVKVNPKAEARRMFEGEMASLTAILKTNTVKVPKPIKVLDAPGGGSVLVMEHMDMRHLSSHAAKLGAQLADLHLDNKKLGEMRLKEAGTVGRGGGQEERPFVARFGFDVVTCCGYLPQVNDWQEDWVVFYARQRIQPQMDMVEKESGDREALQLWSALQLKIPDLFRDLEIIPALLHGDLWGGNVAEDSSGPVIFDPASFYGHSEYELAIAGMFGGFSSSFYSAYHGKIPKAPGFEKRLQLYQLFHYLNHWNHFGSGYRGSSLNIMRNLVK
UniProt P02751, whole entry, looked up: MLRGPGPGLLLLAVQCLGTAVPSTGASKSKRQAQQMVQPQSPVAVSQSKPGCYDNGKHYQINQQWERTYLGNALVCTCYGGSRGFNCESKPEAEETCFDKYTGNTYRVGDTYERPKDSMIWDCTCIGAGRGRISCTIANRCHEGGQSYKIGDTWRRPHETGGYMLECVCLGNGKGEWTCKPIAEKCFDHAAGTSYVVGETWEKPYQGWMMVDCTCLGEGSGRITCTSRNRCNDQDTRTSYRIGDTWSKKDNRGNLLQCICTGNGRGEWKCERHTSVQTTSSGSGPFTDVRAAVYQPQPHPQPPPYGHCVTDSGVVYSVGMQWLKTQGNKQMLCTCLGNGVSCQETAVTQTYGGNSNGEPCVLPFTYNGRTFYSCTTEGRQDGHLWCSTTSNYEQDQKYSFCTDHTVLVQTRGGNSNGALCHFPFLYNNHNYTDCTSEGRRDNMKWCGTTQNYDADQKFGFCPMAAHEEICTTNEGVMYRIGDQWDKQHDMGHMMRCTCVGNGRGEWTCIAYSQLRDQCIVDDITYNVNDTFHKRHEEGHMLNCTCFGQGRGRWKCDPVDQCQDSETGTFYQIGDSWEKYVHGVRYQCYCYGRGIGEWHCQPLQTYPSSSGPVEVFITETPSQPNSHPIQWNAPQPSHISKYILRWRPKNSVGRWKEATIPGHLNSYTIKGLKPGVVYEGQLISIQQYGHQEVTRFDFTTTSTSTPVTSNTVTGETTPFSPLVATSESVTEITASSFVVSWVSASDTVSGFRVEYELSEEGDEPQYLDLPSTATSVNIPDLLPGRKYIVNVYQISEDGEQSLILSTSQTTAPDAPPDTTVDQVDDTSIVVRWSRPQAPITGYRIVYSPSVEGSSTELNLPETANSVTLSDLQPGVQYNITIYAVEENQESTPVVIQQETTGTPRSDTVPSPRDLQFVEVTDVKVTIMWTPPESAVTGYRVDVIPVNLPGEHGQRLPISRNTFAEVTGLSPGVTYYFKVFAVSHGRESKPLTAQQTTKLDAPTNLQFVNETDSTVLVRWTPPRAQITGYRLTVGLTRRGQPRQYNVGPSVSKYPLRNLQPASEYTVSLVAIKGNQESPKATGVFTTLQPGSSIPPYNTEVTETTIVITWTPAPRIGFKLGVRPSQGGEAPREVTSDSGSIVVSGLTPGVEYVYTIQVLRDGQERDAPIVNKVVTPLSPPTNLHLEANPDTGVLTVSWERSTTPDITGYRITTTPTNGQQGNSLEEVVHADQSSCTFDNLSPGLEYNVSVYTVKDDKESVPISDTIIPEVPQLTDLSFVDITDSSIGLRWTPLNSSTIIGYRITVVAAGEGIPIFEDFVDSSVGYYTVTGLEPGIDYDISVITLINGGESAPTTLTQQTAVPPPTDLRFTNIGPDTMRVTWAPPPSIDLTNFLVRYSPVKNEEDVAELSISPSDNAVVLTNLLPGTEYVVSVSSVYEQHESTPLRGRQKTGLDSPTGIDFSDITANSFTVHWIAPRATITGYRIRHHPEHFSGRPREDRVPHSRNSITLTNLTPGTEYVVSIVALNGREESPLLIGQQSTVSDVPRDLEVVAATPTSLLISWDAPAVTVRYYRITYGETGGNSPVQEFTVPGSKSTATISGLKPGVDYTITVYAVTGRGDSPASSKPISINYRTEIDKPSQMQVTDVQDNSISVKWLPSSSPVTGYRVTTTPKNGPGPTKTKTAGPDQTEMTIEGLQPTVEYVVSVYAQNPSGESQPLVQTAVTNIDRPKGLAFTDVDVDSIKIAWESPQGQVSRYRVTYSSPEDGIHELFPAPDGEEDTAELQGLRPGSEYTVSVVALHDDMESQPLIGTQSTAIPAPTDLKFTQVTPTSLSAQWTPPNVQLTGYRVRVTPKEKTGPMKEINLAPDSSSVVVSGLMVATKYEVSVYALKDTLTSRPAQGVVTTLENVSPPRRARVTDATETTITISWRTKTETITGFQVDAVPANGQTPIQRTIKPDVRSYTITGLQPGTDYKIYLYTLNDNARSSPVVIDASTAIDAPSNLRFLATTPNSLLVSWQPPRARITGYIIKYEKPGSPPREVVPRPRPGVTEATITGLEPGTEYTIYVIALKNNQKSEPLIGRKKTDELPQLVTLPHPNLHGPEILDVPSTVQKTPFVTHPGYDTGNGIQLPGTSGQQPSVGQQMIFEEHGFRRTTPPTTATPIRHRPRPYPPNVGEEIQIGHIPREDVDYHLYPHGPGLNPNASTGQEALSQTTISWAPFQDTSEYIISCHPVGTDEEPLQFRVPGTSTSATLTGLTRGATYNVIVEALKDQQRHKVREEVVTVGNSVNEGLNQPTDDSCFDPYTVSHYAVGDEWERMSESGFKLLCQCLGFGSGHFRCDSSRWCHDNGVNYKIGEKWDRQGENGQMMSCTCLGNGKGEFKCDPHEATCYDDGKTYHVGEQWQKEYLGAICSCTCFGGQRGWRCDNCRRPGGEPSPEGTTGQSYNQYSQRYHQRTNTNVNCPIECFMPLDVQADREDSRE
UniProt Q9UIM3: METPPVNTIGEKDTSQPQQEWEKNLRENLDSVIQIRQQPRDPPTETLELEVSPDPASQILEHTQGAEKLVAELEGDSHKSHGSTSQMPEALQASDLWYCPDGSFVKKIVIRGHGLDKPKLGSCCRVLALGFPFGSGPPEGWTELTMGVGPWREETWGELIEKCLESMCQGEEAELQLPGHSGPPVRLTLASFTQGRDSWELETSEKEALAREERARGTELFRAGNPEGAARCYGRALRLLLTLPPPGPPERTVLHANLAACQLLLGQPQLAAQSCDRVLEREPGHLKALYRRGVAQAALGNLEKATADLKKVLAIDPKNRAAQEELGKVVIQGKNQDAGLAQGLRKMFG
UniProt P31995: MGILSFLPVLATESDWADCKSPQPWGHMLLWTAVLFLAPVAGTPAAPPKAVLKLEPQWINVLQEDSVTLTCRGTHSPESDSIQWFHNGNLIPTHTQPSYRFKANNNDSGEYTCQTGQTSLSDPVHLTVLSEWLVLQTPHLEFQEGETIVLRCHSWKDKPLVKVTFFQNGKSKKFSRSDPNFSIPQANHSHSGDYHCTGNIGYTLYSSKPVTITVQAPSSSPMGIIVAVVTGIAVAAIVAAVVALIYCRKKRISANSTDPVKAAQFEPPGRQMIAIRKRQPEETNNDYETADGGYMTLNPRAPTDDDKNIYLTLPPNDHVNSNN
UniProt P35916, whole entry, looked up: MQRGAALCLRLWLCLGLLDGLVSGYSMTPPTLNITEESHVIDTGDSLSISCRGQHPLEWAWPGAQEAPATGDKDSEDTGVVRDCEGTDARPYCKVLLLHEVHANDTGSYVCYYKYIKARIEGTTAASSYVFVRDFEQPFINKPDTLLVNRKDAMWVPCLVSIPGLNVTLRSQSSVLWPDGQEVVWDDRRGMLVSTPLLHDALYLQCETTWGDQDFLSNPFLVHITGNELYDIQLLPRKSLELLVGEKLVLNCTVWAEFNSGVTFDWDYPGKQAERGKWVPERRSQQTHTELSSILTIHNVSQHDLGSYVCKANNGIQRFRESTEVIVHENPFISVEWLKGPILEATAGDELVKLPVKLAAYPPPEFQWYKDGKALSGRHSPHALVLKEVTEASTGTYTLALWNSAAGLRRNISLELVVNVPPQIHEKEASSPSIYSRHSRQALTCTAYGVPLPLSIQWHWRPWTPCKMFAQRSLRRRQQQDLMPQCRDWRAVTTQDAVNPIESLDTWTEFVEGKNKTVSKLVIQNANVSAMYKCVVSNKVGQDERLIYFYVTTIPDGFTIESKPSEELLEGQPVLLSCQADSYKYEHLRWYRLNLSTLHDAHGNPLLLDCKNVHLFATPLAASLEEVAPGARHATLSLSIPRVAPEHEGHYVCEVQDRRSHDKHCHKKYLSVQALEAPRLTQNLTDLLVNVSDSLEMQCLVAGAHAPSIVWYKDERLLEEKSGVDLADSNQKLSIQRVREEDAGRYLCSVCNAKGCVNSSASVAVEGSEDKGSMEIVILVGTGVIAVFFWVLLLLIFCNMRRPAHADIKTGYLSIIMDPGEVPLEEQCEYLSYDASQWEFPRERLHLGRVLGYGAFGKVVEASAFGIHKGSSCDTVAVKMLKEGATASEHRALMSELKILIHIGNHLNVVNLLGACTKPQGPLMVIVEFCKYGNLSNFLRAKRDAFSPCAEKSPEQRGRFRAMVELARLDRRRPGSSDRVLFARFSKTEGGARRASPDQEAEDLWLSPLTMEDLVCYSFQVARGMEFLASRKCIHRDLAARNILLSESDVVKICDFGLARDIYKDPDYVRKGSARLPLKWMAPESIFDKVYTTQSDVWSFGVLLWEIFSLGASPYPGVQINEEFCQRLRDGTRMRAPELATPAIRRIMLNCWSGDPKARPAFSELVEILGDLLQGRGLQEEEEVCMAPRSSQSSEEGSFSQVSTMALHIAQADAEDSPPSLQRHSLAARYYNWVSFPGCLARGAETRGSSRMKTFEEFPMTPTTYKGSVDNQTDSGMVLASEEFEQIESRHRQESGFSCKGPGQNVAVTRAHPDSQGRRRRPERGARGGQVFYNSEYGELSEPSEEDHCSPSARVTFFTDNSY
UniProt Q8NEZ5: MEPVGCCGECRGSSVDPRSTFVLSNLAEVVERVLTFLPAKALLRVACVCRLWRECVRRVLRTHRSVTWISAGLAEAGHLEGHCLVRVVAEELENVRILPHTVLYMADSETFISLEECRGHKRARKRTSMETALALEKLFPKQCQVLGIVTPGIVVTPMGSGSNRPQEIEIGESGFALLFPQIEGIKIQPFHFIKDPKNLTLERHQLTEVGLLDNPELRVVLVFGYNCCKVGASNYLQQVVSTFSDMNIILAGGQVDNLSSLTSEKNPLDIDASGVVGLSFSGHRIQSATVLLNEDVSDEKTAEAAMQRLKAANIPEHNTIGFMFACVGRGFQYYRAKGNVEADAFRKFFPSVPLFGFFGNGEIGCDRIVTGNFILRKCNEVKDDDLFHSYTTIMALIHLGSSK
UniProt Q9H479: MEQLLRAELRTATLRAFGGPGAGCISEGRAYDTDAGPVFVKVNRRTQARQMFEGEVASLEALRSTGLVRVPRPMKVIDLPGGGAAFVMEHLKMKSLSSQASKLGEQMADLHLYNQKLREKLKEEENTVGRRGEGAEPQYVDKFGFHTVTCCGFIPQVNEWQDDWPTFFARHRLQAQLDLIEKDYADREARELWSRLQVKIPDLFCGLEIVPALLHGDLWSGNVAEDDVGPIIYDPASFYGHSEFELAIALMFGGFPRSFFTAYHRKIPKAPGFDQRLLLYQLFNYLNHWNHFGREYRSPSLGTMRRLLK

[2] = compound: CON(C)C(=O)N1N=C(c2cc(F)ccc2F)S[C@@]1(CCCN)c1ccccc1 [filanesib]
Summary of the method: as §1

[3] = compound: CO[C@H]1C[C@@H]2CC[C@@H](C)[C@@](O)(O2)C(=O)C(=O)N2CCCC[C@H]2C(=O)O[C@H]([C@H](C)C[C@@H]2CC[C@H](n3cnnn3)[C@H](OC)C2)CC(=O)[C@H](C)/C=C(\C)[C@@H](O)[C@@H](OC)C(=O)[C@H](C)C[C@H](C)/C=C/C=C/C=C/1C [zotarolimus]
Summary of the method: as §1

[4] = compound: COc1cc(C(=O)O)ccc1NC(=O)[C@@H]1N[C@@H](CC(C)(C)C)[C@](C#N)(c2ccc(Cl)cc2F)[C@H]1c1cccc(Cl)c1F [idasanutlin]
Summary of the method: as §1

[5] = compound: COc1cc(Nc2ncc3c(n2)-c2ccc(Cl)cc2C(c2c(F)cccc2OC)=NC3)ccc1C(=O)O [alisertib]
Summary of the method: as §1

[6] = compound: COc1cc2nc(-c3cc(F)ccc3O)nc(N[C@@H]3CNC[C@H]3C(C)(C)O)c2cc1OC
Summary of the method: as §1

[7] = compound: COc1cc2ncnc(Nc3ccc(F)c(Cl)c3)c2cc1OCCCN1CCOCC1 [gefitinib]
Summary of the method: as §1

[8] = compound: COc1cccc2cc(-c3nc([C@H]4CC[C@H](C(=O)O)CC4)n4ncnc(N)c34)[nH]c12
Summary of the method: as §1

[9] = compound: CS(=O)(=O)CCNCc1ccc(-c2ccc3ncnc(Nc4ccc(OCc5cccc(F)c5)c(Cl)c4)c3c2)o1 [lapatinib]
Summary of the method: as §1

[10] = compound: CS(=O)(=O)N1CCN(Cc2cc3nc(-c4cccc5[nH]ncc45)nc(N4CCOCC4)c3s2)CC1 [pictilisib]
Summary of the method: as §1

[11] = compound: CS(=O)(=O)c1ccc(-c2cnc(N)c(C(=O)Nc3ccccc3)n2)cc1
Summary of the method: as §1

[12] = compound: C[C@@H](Oc1cc(-c2cnn(C3CCNCC3)c2)cnc1N)c1c(Cl)ccc(F)c1Cl [crizotinib]
Summary of the method: as §1

[13] = compound: C[C@@H]1COCCN1C2=NC(=NC(=C2)C3(CC3)S(=O)(=O)C)C4=C5C=CNC5=CC=C4
Summary of the method: as §1

[14] = compound: C[C@H](C1=CC=C(C=C1)C(=O)NC2=C3C=CNC3=NC=C2)N
Summary of the method: as §1

[15] = compound: C[C@H](Nc1ncnc2nc[nH]c12)c1cc2cccc(Cl)c2c(=O)n1-c1ccccc1 [duvelisib]
Summary of the method: as §1

[16] = compound: Cc1cc(Nc2cc(CN3CCOCC3)c3nc(C)c(Cc4ccc(Cl)cc4F)n3n2)n[nH]1 [gandotinib]
Summary of the method: as §1

[17] = compound: Cc1cc(Nc2cc(N3CCN(C)CC3)nc(Sc3ccc(NC(=O)C4CC4)cc3)n2)n[nH]1 [tozasertib]
Summary of the method: as §1

[18] = compound: Cc1cc(SCc2sc(-c3ccc(C(F)(F)F)cc3)nc2C)ccc1OCC(=O)O
Summary of the method: as §1

[19] = compound: Cc1ccc(-n2nc(C(C)(C)C)cc2NC(=O)Nc2ccc(OCCN3CCOCC3)c3ccccc23)cc1 [doramapimod]
Summary of the method: as §1

[20] = compound: Cc1ccc(C(=O)N(CCCN)[C@@H](c2nc3cc(Cl)ccc3c(=O)n2Cc2ccccc2)C(C)C)cc1 [ispinesib]
Summary of the method: as §1

Measured: log2 fold change

FKBP5 (UniProt Q13451)
inactive: [1] 0.031 | [2] 0.001 | [3] 0.152 | [4] -0.057 | [5] -0.062 | [6] -0.006 | [7] 0.068 | [8] -0.093 | [9] -0.044 | [10] -0.038 | [11] 0.031 | [12] -0.106 | [13] 0.005 | [14] 0.086 | [15] -0.007 | [16] -0.073 | [17] 0.073 | [18] 0.129 | [19] 0.029 | [20] -0.131

FHL2 (UniProt Q14192)
inactive: [1] 0.032 | [2] 0.019 | [3] -0.058 | [4] 0.033 | [5] -0.136 | [6] 0.036 | [7] -0.009 | [8] 0.005 | [9] -0.007 | [10] -0.039 | [11] 0.011 | [12] 0.046 | [13] -0.03 | [14] 0.004 | [15] -0.026 | [16] 0.015 | [17] 0.047 | [18] -0.065 | [19] -0.03 | [20] 0.053

FAM210A (UniProt Q96ND0)
inactive: [1] 0.072 | [2] -0.062 | [3] -0.023 | [4] -0.026 | [5] 0 | [6] 0.055 | [7] -0.012 | [8] 0.041 | [9] -0.04 | [10] 0.068 | [11] 0.025 | [12] 0.056 | [13] 0.008 | [14] -0.058 | [15] 0.057 | [16] 0.004 | [17] -0.02 | [18] 0.016 | [19] -0.046 | [20] 0.025

FN3KRP (UniProt Q9HA64)
inactive: [1] 0.019 | [2] 0.002 | [3] -0.022 | [4] 0 | [5] -0.085 | [6] 0.027 | [7] -0.036 | [8] 0.036 | [9] -0.012 | [10] 0.011 | [11] -0.005 | [12] 0.033 | [13] 0.013 | [14] -0.087 | [15] 0.028 | [16] 0.048 | [17] -0.038 | [18] -0.014 | [19] -0.025 | [20] 0.063

FN1 isoform 1 (UniProt P02751)
inactive: [1] 0.035 | [2] 0.004 | [3] -0.325 | [4] 0.087 | [5] 0.085 | [6] -0.022 | [7] -0.079 | [8] 0.203 | [9] -0.018 | [10] -0.119 | [11] -0.029 | [12] 0.069 | [13] 0.037 | [14] 0.01 | [15] 0.02 | [16] -0.213 | [17] -0.02 | [18] -0.144 | [19] -0.078 | [20] -0.008

FKBPL (UniProt Q9UIM3)
inactive: [1] -0.019 | [2] -0.05 | [3] 0.001 | [4] 0.028 | [5] -0.04 | [6] 0.015 | [7] 0.05 | [8] 0.003 | [9] 0.029 | [10] 0.026 | [11] 0.014 | [12] 0.01 | [13] 0.058 | [14] -0.074 | [15] 0.014 | [16] -0.032 | [17] -0.002 | [18] -0.04 | [19] -0.037 | [20] -0.064

FCGR2C (UniProt P31995)
inactive: [1] 0.016 | [2] 0.013 | [3] -0.015 | [4] -0.031 | [5] -0.064 | [6] 0.017 | [7] 0.022 | [8] 0.055 | [9] -0.003 | [10] 0.063 | [11] 0.002 | [12] 0.136 | [13] 0.022 | [14] -0.11 | [15] 0.074 | [16] 0 | [17] -0.068 | [18] -0.097 | [19] -0.018 | [20] 0.094

Two neighbouring records from above, for reference:
FN1 isoform 1 (UniProt P02751)
inactive: [1] 0.035 | [2] 0.004 | [3] -0.325 | [4] 0.087 | [5] 0.085 | [6] -0.022 | [7] -0.079 | [8] 0.203 | [9] -0.018 | [10] -0.119 | [11] -0.029 | [12] 0.069 | [13] 0.037 | [14] 0.01 | [15] 0.02 | [16] -0.213 | [17] -0.02 | [18] -0.144 | [19] -0.078 | [20] -0.008

FKBPL (UniProt Q9UIM3)
inactive: [1] -0.019 | [2] -0.05 | [3] 0.001 | [4] 0.028 | [5] -0.04 | [6] 0.015 | [7] 0.05 | [8] 0.003 | [9] 0.029 | [10] 0.026 | [11] 0.014 | [12] 0.01 | [13] 0.058 | [14] -0.074 | [15] 0.014 | [16] -0.032 | [17] -0.002 | [18] -0.04 | [19] -0.037 | [20] -0.064

(list continues)

FKBP15 (UniProt Q5T1M5)
inactive: [1] 0.034 | [2] 0.069 | [3] 0.032 | [4] 0.018 | [5] 0.011 | [6] 0.094 | [7] 0.056 | [8] -0.071 | [9] 0.01 | [10] 0.011 | [11] -0.018 | [12] -0.118 | [13] -0.026 | [14] 0.046 | [15] -0.046 | [16] -0.018 | [17] 0.042 | [18] 0.085 | [19] 0.063 | [20] -0.106

FLT4 (UniProt P35916)
inactive: [1] -0.053 | [2] -0.068 | [3] 0.016 | [4] -0.065 | [5] 0.932 | [6] 0.021 | [7] -0.115 | [8] -0.014 | [9] -0.062 | [10] -0.018 | [11] 0.05 | [12] 0.062 | [13] 0.427 | [14] -0.06 | [15] 0.087 | [16] -0.001 | [17] 0.029 | [18] 0.003 | [19] -0.082 | [20] -0.102

FDX2 (UniProt Q6P4F2)
inactive: [1] -0.051 | [2] -0.022 | [3] 0.003 | [4] 0.073 | [5] -0.053 | [6] -0.063 | [7] 0.017 | [8] 0.014 | [9] -0.049 | [10] -0.146 | [11] 0.018 | [12] 0.166 | [13] 0.097 | [14] -0.037 | [15] 0.091 | [16] 0.09 | [17] 0.024 | [18] 0.012 | [19] 0.028 | [20] 0.063

FARSB (UniProt Q9NSD9)
inactive: [1] -0.027 | [2] -0.039 | [3] 0.028 | [4] -0.044 | [5] -0.055 | [6] 0.009 | [7] 0.024 | [8] -0.02 | [9] -0.006 | [10] 0.035 | [11] 0.012 | [12] 0.016 | [13] 0.036 | [14] 0.022 | [15] 0.016 | [16] -0.01 | [17] 0.015 | [18] 0.053 | [19] -0.02 | [20] -0.032

FASTKD2 (UniProt Q9NYY8)
inactive: [1] -0.062 | [2] -0.099 | [3] 0.01 | [4] -0.089 | [5] -0.04 | [6] -0.023 | [7] -0.008 | [8] 0.052 | [9] -0.011 | [10] 0.022 | [11] 0.019 | [12] -0.043 | [13] 0.061 | [14] -0.038 | [15] 0.005 | [16] -0.094 | [17] 0.02 | [18] 0.044 | [19] 0.019 | [20] -0.064

FLNC (UniProt Q14315)
inactive: [1] -0.019 | [2] 0.001 | [3] 0.021 | [4] -0.044 | [5] -0.036 | [6] 0.029 | [7] -0.004 | [8] -0.031 | [9] -0.008 | [10] -0.007 | [11] 0.05 | [12] 0.008 | [13] 0.041 | [14] -0.023 | [15] 0 | [16] -0.049 | [17] 0.044 | [18] 0.032 | [19] -0.008 | [20] 0.049

FBXO22 (UniProt Q8NEZ5)
inactive: [1] 0.041 | [2] -0.051 | [3] 0.011 | [4] -0.059 | [5] -0.034 | [6] 0.022 | [7] -0.013 | [8] 0 | [9] 0.046 | [10] -0.062 | [11] 0 | [12] 0.089 | [13] 0.023 | [14] -0.061 | [15] 0.047 | [16] -0.071 | [17] 0.014 | [18] -0.021 | [19] -0.074 | [20] 0.044

FN3K (UniProt Q9H479)
inactive: [1] -0.01 | [2] -0.019 | [3] -0.009 | [4] 0.008 | [5] -0.06 | [6] -0.016 | [7] -0.011 | [8] 0.023 | [9] 0.042 | [10] -0.048 | [11] -0.042 | [12] 0.033 | [13] 0 | [14] -0.023 | [15] 0.042 | [16] 0 | [17] -0.027 | [18] -0.002 | [19] -0.02 | [20] 0.045

FAR1 (UniProt Q8WVX9)
inactive: [1] 0.012 | [2] 0.009 | [3] 0.025 | [4] -0.113 | [5] -0.081 | [6] -0.095 | [7] 0.016 | [8] 0.017 | [9] 0.029 | [10] -0.025 | [11] -0.007 | [12] 0.077 | [13] 0.003 | [14] -0.042 | [15] 0.061 | [16] -0.028 | [17] 0.012 | [18] 0.056 | [19] -0.003 | [20] -0.161
